Experimental data published in US20180236024A1.
No constants are given. Whether binding was seen depends on the method and setting. Binding seen in cells or lysates may run through a third protein. Some binding calls cover weakened binding; strength is not graded here. One block for each substance: values may come before it.

By UniProt entry, the sequences of proteins in these tests, tags left out. Where a name states a change or a piece, a line headed by the entry shows the natural chain unless it says otherwise.
UniProt Q676U5: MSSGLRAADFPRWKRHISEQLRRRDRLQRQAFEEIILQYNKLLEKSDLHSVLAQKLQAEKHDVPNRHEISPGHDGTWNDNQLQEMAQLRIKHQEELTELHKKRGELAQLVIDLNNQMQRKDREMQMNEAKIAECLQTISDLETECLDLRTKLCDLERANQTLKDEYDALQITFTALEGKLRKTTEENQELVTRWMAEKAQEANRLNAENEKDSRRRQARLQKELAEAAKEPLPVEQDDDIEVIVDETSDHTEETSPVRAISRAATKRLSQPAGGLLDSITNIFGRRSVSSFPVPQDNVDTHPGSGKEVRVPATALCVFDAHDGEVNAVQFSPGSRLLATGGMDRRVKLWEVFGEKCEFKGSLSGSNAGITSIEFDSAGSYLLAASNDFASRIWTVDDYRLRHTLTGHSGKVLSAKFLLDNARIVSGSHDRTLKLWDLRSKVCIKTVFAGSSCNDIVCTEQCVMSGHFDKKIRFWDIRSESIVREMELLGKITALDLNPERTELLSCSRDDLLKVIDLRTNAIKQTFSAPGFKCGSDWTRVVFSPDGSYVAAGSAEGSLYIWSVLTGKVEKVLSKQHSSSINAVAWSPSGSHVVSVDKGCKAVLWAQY
UniProt O95166: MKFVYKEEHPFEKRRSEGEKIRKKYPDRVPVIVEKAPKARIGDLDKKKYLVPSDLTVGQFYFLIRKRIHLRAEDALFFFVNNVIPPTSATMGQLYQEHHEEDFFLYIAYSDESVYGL
UniProt P60520: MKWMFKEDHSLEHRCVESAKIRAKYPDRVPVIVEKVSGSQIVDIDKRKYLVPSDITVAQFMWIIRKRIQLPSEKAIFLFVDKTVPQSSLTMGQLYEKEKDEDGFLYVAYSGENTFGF
UniProt Q9BXW4: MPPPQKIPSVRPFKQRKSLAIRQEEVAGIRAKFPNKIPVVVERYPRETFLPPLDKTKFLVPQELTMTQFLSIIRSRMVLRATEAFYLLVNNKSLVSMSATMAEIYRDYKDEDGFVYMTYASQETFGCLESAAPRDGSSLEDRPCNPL
UniProt Q9HC29: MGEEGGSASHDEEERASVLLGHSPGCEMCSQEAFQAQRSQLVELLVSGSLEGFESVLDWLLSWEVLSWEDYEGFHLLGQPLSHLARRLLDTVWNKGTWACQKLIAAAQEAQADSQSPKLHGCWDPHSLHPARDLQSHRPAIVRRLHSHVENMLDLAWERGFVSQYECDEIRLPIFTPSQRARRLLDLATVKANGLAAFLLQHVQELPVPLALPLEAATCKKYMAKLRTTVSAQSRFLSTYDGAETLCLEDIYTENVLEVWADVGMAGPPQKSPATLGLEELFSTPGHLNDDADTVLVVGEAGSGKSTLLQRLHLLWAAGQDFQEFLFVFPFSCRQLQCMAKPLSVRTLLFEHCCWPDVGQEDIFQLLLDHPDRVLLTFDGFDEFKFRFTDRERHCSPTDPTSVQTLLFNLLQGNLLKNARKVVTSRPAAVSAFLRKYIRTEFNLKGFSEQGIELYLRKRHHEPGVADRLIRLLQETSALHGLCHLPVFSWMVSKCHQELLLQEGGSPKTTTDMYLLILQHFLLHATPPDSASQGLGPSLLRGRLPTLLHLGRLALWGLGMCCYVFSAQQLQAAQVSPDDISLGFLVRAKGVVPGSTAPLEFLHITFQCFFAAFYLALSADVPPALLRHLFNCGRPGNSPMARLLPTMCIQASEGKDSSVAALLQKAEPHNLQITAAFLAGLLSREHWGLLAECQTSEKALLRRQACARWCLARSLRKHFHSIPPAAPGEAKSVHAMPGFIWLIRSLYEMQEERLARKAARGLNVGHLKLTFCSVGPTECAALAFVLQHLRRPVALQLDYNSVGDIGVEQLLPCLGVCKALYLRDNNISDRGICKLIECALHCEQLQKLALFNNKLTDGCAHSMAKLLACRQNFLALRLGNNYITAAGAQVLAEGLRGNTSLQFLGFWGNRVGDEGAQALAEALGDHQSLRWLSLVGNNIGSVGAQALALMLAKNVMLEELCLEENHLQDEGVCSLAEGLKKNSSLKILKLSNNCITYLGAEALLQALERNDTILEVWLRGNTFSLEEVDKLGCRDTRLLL
UniProt O15553: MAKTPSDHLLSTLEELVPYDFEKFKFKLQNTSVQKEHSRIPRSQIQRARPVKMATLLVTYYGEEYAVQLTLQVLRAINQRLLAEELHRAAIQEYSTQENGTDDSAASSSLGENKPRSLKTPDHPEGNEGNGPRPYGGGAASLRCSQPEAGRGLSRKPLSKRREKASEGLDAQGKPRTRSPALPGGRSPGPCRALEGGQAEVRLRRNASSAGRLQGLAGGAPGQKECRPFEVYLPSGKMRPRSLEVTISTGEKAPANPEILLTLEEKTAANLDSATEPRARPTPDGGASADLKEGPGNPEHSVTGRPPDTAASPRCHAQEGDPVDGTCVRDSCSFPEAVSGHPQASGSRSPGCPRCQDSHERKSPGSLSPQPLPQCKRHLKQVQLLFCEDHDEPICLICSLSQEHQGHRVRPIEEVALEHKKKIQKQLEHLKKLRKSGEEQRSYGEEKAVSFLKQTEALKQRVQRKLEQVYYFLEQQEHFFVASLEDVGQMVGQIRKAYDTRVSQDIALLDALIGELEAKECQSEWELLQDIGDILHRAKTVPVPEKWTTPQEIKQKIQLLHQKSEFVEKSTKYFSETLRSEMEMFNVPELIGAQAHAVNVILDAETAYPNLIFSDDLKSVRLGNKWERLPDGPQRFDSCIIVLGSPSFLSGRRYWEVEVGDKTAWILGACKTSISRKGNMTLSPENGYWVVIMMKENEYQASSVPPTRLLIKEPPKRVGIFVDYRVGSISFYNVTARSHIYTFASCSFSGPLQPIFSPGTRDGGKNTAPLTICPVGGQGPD
UniProt P19474: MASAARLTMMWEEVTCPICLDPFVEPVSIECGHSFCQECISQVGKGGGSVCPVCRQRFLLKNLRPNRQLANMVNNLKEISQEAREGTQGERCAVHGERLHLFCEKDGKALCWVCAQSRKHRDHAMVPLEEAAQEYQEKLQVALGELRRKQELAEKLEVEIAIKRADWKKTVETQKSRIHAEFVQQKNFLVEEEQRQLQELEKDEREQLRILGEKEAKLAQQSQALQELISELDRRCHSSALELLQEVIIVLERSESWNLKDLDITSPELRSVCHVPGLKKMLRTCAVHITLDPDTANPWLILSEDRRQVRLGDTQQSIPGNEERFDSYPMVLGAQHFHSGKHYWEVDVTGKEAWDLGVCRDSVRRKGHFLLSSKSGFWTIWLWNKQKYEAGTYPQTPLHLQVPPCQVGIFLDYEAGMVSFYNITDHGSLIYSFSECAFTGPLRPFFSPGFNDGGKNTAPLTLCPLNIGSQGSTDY

Experiments:
[1] = biological target: ATG16L1 (UniProt Q676U5); test: co-immunoprecipitation
[2] = biological target: GST-LC3A (UniProt Q9H492); test: GST pull-down of radiolabeled Myc-TRIM20 deletion variants
[3] = biological target: GST-GABARAP (UniProt O95166); test: as above
[4] = biological target: T1, ULK1 (UniProt O75385); test: co-IP of GFP-TRIM21 with Myc-ULK1, HEK293 cell extracts
T1 sequence (looked up): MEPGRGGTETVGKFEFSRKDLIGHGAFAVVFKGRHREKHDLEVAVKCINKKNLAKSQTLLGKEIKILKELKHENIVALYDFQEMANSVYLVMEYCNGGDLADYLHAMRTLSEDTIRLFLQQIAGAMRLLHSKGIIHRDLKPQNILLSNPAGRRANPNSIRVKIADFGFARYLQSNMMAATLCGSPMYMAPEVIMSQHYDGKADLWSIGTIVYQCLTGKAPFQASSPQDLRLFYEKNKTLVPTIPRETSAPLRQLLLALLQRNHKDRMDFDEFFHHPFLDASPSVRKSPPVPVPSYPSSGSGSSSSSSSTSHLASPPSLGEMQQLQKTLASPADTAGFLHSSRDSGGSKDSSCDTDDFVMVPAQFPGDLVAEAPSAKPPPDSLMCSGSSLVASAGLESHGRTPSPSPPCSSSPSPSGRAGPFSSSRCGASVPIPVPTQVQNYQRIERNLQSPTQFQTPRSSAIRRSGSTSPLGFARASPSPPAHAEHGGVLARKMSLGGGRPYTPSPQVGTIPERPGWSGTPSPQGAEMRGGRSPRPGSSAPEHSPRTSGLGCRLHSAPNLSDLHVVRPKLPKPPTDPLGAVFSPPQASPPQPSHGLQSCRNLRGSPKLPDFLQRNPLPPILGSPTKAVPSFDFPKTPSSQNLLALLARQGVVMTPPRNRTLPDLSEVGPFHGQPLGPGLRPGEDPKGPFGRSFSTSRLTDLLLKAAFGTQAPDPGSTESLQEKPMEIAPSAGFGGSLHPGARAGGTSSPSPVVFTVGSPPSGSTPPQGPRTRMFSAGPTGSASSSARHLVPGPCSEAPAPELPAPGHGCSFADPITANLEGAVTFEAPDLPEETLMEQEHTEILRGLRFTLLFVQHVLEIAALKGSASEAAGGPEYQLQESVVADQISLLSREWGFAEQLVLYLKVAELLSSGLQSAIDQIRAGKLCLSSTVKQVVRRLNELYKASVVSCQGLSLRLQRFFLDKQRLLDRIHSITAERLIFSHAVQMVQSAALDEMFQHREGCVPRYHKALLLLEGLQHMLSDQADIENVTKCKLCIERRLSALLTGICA

[5] = biological target: GST-GABARAPL2 (UniProt P60520); test: GST pull-down of radiolabeled Myc-TRIM20
[6] = biological target: GST-LC3C (UniProt Q9BXW4); test: GST pull-down of radiolabeled Myc-TRIM20
[7] = biological target: GST-LC3A (UniProt Q9H492); test: GST pull-down of radiolabeled Myc-TRIM20
[8] = biological target: GST-GABARAP (UniProt O95166); test: GST pull-down of radiolabeled Myc-TRIM21 with GST-mAtg8s

binding [1]: binds
Substance: NOD2 (full length) (from UniProt Q9HC29 1-1040) (receptor)

binding [2]: binds
binding [3]: binds
Substance: TRIM20 deletion construct spanning residues 375-595 (from UniProt O15553 375-595)

binding [4]: binds
Substance: TRIM21 expressed in cells (from UniProt P19474 1-475)

binding [5]: binds
binding [6]: binds
binding [7]: binds
Substance: radiolabeled Myc-TRIM20 (from UniProt O15553 1-781)

binding [8]: binds
Substance: radiolabeled Myc-TRIM21 (from UniProt P19474 1-475)
